Literature values in patent US20240255531A1, “MATURE ADRENOMEDULLIN FOR THERAPY STRATIFICATION OF CORTICOSTEROIDS IN CRITICALLY ILL PATIENTS” (priority 2021, published 2024).
For at least one compound, name, drawing or mass did not settle the structure.

Legend:
[1] = cited from earlier work; for Potency relat. to hydrocortisone, Anti-inflammatory: relative to hydrocortisone
[2] = relative to hydrocortisone; cited from earlier work
[3] = tested on: patients with hypertension; conditions: cited from earlier work

| Compound | Equivalent glucocorticoid dose [1] | Potency relat. to hydrocortisone, Anti-inflammatory [1] | Potency relat. to hydrocortisone, Mineralcorticoid [2] | MR-proADM concentrations after treatment [3] |
| --- | --- | --- | --- | --- |
| C[C@@H]1C[C@H]2[C@@H]3CCC4=CC(=O)C=C[C@]4(C)[C@@]3(F)[C@@H](O)C[C@]2(C)[C@@]1(O)C(=O)CO [Dexamethasone] | 0.75 mg | 30 | 0 | did not change significantly |
| C[C@H]1C[C@@H]2[C@H]([C@@H](O)C[C@@]3(C)[C@H]2CC[C@]3(O)C(=O)CO)[C@@]2(C)C=CC(=O)C=C12 [Methylprednisolone] | 4 mg | 5 | 0.5 | – |
